Earlier results in patent publication US20210275543A1, “METHODS FOR THE TREATMENT OF MITOCHONDRIAL GENETIC DISEASES” (NSERM (INSTITUT NATIONAL DE LA SANTÉ ET DE LA RECHERCHE …, priority 2017, published 2021).
At least one compound was matched to its structure with a doubt left.

Tested on: Ndufs4−/− mice
Conditions: earlier published work (ref. 6); cited from earlier work

CO[C@H]1C[C@@H]2CC[C@@H](C)[C@@](O)(O2)C(=O)C(=O)N2CCCC[C@H]2C(=O)O[C@H]([C@H](C)C[C@@H]2CC[C@@H](O)[C@H](OC)C2)CC(=O)[C@H](C)/C=C(\C)[C@@H](O)[C@@H](OC)C(=O)[C@H](C)C[C@H](C)/C=C/C=C/C=C/1C [rapamycin]
lifespan: extended the lifespan
onset of neurological symptoms and lesions: substantially delayed
